The whole screen tested about 400,000 compounds, of which about 13,000 (3.2%) were called active. This list was built around the results that the source calls inconclusive (neither active nor inactive); the mix of calls is not that of the screen. The call rests on the fitted dose curve; in most records, active means well fitted cell-killing curve with a large enough effect; inconclusive means small, poorly fitted or top-dose-only effect, or effect the other way; inactive means flat fitted curve, though single readings scatter. Potencies beside an inconclusive call are fits to weak or partial responses and may not hold up.
Experiment: qHTS assay for MDR1-selective chemotherapeutics: Primary screen using the drug-selected MDR subline cells KB-V1; further: nearly all actives have a fitted effect of over 60% in size
Conditions: KB-V1 MDR cells viability, CellTiter-Glo, 72 h; activity change, negative = cytotoxicity: at 46.1 µM (top of the series)
In short: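 In this primary screen, KB-V1 cells overexpressing P-gp are incubated with library compounds (lowest to highest concentration) for 72 h at 37 degrees C before a luminescent ATP viability read.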
On the % scale 0 is the no-effect control and ±100 the full control effect; potency means the concentration at half of the fitted maximal effect.

Row | Structure (SMILES) | Potency | activity change, negative = cytotoxicity
1 | O=C(Nc1ccc(C#Cc2ccccc2)cc1)C1CC1 | active: 14.6 µM | 
2 | CC(C)(C)OC(=O)CNC(=O)c1[nH]cnc1C(=O)NCCCCCN | inconclusive: 0.58 µM [rising, full curve, poor fit] | 
3 | Cc1c(Cl)cccc1NS(=O)(=O)c1ccc2c(c1)C1C=CCC1C(c1ccc(C(=O)O)cc1)N2 (stereo not given) |  | inconclusive: 35.9%
4 | O=C(NN=Cc1ccc(OC(F)F)cc1)c1ccc(NS(=O)(=O)c2cccs2)cc1 | inconclusive: 25.9 µM [rising, single point] | 
5 | S=c1[nH]cc2cnccn12 | inconclusive: 20.6 µM [rising, single point] | 
6 | Cc1nn(Cc2ccccc2)c(C)c1NC(=O)Cn1nc([N+](=O)[O-])c(Cl)c1C | inactive | 
7 | CN(c1ccc(F)cc1)S(=O)(=O)c1ccc(Cl)c(C(=O)NCC2(N3CCOCC3)CCCCC2)c1 | active: 18.4 µM | 
8 | CC(C)(C)S(=O)(=O)c1nc2ccccc2s1 | inactive | 
9 | Cc1c(C#N)c(N=CN(C)C)c(C(=O)c2ccc(Br)cc2)n1-c1ccc(Cl)cc1 | inconclusive: 5.62 µM [cytotoxic, full curve] | 
10 | CC(C)[C@H](NC(=O)c1ccccc1Cl)C(=O)OCc1cc([N+](=O)[O-])cc2c1OCOC2 | active: 20.6 µM | 
11 | O=C1N(c2cccc(Cl)c2)C(c2ccccc2)N2CCCN12 (stereo not given) | inactive | 
12 | Cc1ccc(S(=O)(=O)NC2CCCCC2)c(C)c1NS(C)(=O)=O | inactive | 
13 | CCCCn1c(N)c(N(CC(C)C)C(=O)C2CC(=O)N(Cc3ccccc3)C2)c(=O)[nH]c1=O (stereo not given) | inconclusive: 14.6 µM [rising, single point] | 
14 | CCOC(=O)c1c(NC(=O)CSc2nnc(-c3ccc(C)cc3)o2)sc(C(C)=O)c1C | inconclusive: 32.6 µM [cytotoxic, single point] | 
15 | COc1ccc(Cn2c(=O)c3cccnc3n(Cc3cccc(F)c3)c2=O)cc1 | inactive | 
16 | O=C(Nc1nc2c(s1)CN(Cc1ccccc1)CC2)c1cccc(S(=O)(=O)N2CCc3ccccc32)c1 | active: 6.51 µM | 
17 | CCc1nc2sc(C(C)=O)c(N)c2c2c1CCCC2 | inconclusive: 8.2 µM [cytotoxic, partial curve, poor fit] | 
18 | Nc1c(Nc2ccccc2)c2ccccc2oc1=O | inconclusive: 18.4 µM [cytotoxic, single point] | 
19 | O=C(CNC(c1ccccc1)c1ccccc1)Nc1ccccc1F | inactive | 
20 | CCN1CCN(c2cc(C)nc(-c3ccccc3O)n2)CC1 | inactive | 
21 | C/C(=N/NS(=O)(=O)c1ccc(F)cc1)c1ccncc1 | inconclusive: 23.1 µM [rising, single point] | 
22 | CCOC(=O)c1ccc(N2CCCCC2)c(NS(=O)(=O)c2cccc(C(F)(F)F)c2)c1 | inconclusive: 23.1 µM [cytotoxic, single point] | 
23 | CCOc1ccc(-c2nc(CN(Cc3ccccc3)C[C@@H]3CCC(=O)N3)c(C)o2)cc1 | inactive | 
24 | CC(=O)c1c(C)[nH]c2ccc(OCC(O)CNCCc3ccccc3)cc12 (stereo not given) | inconclusive: 29.1 µM [cytotoxic, single point] | 

Row | Structure (SMILES) | Potency | activity change, negative = cytotoxicity
25 | CCCCCCN1C[C@H](n2cc(-c3ccc(F)cc3)nn2)[C@@H](O)C[C@@H]1c1ccc(OC)cc1 | inconclusive: 23.1 µM [rising, single point] | 
26 | COCCNc1nc(NCCOc2ccccc2)c2sc(-c3ccccc3)cc2n1 | inconclusive: 29.1 µM [cytotoxic, single point] | 
27 | COC(=O)CN(c1nc(C)c(Br)c(OC)n1)S(=O)(=O)c1ccccc1 | inconclusive: 4.11 µM [cytotoxic, full curve] | 
28 | O=c1c2[nH]c3ccc(F)cc3c2nc2n1CCCS2 | inconclusive: 13 µM [rising, partial curve, poor fit] | 
29 | COc1ccc(CC2S/C(=N/N=C/c3ccc(O)cc3)NC2=O)cc1 (stereo not given) | inactive | 
30 | O=C(CSc1nnc(-c2ccc3c(c2)OCO3)o1)Nc1ncc(C(F)(F)F)cc1Cl | inconclusive: 20.6 µM [cytotoxic, single point] | 
31 | CCC/C=C/c1ccc(CN2C(C(C)C)C(=O)N(Cc3cn(CC4CCCCC4)nn3)CCS2(=O)=O)cc1 (stereo not given) | inconclusive: 25.9 µM [cytotoxic, partial curve, poor fit] | 
32 | Cc1ccc(N=C2NC(=O)/C(=C/C=C/c3ccco3)S2)cc1C | inconclusive: 29.1 µM [cytotoxic, single point] | 
33 | CCOC(=O)c1c(C)[nH]c(C(=O)COC(=O)C2CC2)c1C | inconclusive: 7.31 µM [cytotoxic, partial curve] | 
34 | COc1ccccc1-c1noc2c1C(=O)N(Cc1cn(C3CCCC3)nn1)CC2 | inactive | 
35 | CC1CCN(CC(=O)Nc2ccc(S(=O)(=O)N3CCC(C)CC3)cc2)CC1 | inconclusive: 8.2 µM [cytotoxic, partial curve] | 
36 | CCN(Cc1ccccc1)C(c1cc2cc(C)cc(C)c2[nH]c1=O)c1nnnn1CCOC (stereo not given) | inactive | 
37 | Cc1ncc(CSc2nc3ccccc3[nH]2)c(N)n1 |  | inconclusive: -31.3% [cytotoxic]
38 | CC(=O)Nc1cccc2cc(S(=O)(=O)O)ccc12 | inactive | 
39 | COc1ccccc1NC(=O)c1c(C)cc(C)nc1SCC(=O)c1ccc(Cl)cc1 | inactive | 
40 | COC(=O)c1c(NC(=O)CC2SCC(C(=O)OC)NC2=O)sc2c1CCCC2 (stereo not given) | inconclusive: 32.6 µM [rising, single point] | 
41 | CN(C)c1cccc(C(=O)N2CCC(n3nccc3NC(=O)C3CCOC3)CC2)c1 (stereo not given) | inconclusive: 23.1 µM [rising, single point] | 
42 | CN(CC(=O)Nc1cccc(F)c1)C(=O)c1cc([N+](=O)[O-])ccc1N1CCOCC1 | inactive | 
43 | CCOC(=O)c1c2c3c(cccc3n(C)c1=O)C(=O)c1ccccc1-2 | active: 20.6 µM | 
44 | COc1ccc(/C=N/Nc2ccc([N+](=O)[O-])cc2)cc1O | inconclusive: 25.9 µM [cytotoxic, single point] | 
45 | O=C(Nc1ccccc1)NC1CCCCC1 | inactive | 
46 | Cc1sc(=NC(=O)c2ccco2)n(C)c1-c1ccc(Cl)cc1 | inconclusive: 18.4 µM [cytotoxic, partial curve] | 
47 | COc1ccc(OC)c(Cc2nnc(CCC(=O)N3CCCCC3c3nccs3)o2)c1 (stereo not given) | inconclusive: 16.4 µM [cytotoxic, partial curve] | 
48 | CCOC(=O)C1=C(C)Nc2ccccc2N/C1=N\S(=O)(=O)c1cccc(Cl)c1 | inconclusive: 18.4 µM [cytotoxic, single point] | 

Row | Structure (SMILES) | Potency | activity change, negative = cytotoxicity
49 | Cc1cc(C)c(NC(=O)c2cnn(C)c2)c(C)c1 |  | inconclusive: -40.3%
50 | CC(C)c1ccc2oc(-c3ccc(N)cc3)nc2c1 | active: 20.6 µM | 
51 | Cc1cc(F)ccc1S(=O)(=O)Nc1ccc(C(=O)N2CCCCC2)cc1 | inactive | 
52 | O=C(c1cn(-c2ccccc2)nc1-c1cc2ccccc2oc1=O)N1CCOCC1 | inconclusive: 0.0092 µM [cytotoxic, full curve, poor fit] | 
53 | O=C1c2ccccc2C(=O)N1CC1=CCS(=O)(=O)C1 | inconclusive: 18.4 µM [rising, partial curve, poor fit] | 
54 | O=C(CCn1c2c(c3ccccc31)CCCC2)NNC(=O)c1ccc(Cl)c([N+](=O)[O-])c1 | inconclusive: 20.6 µM [cytotoxic, single point] | 
55 | O=C1NC[C@H](CCCCN2CCN(CCC3CCCCC3)C(=O)C2=O)N(CC2CCCCC2)C1=O | inconclusive: 18.4 µM [rising, single point] | 
56 | C/C=C1\NC(=O)[C@H](CC(N)=O)N(C)C(=O)C([C@@H](C)O)NC(=O)C(CCCc2ccc(OC)cc2)NC(=O)[C@H](C(C)C)NC(=O)/C(=C\C)NC(=O)[C@H](O)[C@@H](C[C@@H](O)CCCCCCC)NC(=O)[C@H](C)NC(=O)CN(C)C(=O)[C@H](CCC(N)=O)NC1=O (stereo not given in full) | inactive | 
57 | Cc1nn(C)c(Cl)c1CN1CCN(CC(C)C)C(CCO)C1 (stereo not given) | inconclusive: 29.1 µM [cytotoxic, single point] | 
58 | CCn1cc2nc(SCC(=O)Nc3ccccc3C(F)(F)F)n(Cc3ccc(C)cc3)c(=O)c2n1 | inconclusive: 29.1 µM [cytotoxic, single point] | 
59 | Cc1ccccc1C(=O)n1nc(-c2cccnc2)nc1NCc1ccccc1 | inactive | 
60 | COc1cc(C(=O)NCc2cccc3ccccc23)cc(Cl)c1OC | active: 18.4 µM | 
61 | NNc1ncnc2c1cnn2-c1ccccc1 | inconclusive: 29.1 µM [cytotoxic, single point] | 
62 | Cc1cc(NC(=O)NC2(C(F)(F)F)Oc3ccc(Cl)cc3O2)no1 (stereo not given) | active: 18.4 µM | 
63 | Cc1cccc(C)c1OCC(O)Cn1c2ccccc2c2ccccc21 (stereo not given) | inconclusive: 25.9 µM [cytotoxic, single point] | 
64 | CC(=O)Nc1cccc(/C(C)=N/NC(=O)c2ccc(O)cc2)c1 | inconclusive: 20.6 µM [rising, single point] | 
65 | S=c1[nH]nc(-c2cc(-c3ccccn3)nc3ccccc23)o1 | inconclusive: 29.1 µM [rising, single point] | 
66 | Cc1ccc(C(=O)NCCc2cc3ccc(C)c(C)c3[nH]c2=O)cc1[N+](=O)[O-] | active: 4.11 µM | 
67 | CC(C)Oc1ccc(-c2nc3c(C#N)c[nH]n3c2NC2CCCCC2)cc1 |  | inconclusive: -35.9% [cytotoxic]
68 | COc1cc(Cl)ccc1OCc1cc(C(=O)N2C[C@@H]3CCC[C@H]2C3)no1 | inconclusive: 11.6 µM [cytotoxic, partial curve] | 
69 | CS(=O)(=O)c1ccc(Cl)c(NC(=O)COC(=O)Cc2c[nH]c3ccccc23)c1 | inactive | 
70 | Cc1ccccc1Nc1c([N+](=O)[O-])cncc1[N+](=O)[O-] | inactive | 

Single entries from the entries so far:
Entry for CCn1cc2nc(SCC(=O)Nc3ccccc3C(F)(F)F)n(Cc3ccc(C)cc3)c(=O)c2n1 under Potency: inconclusive: 29.1 µM [cytotoxic, single point]
Entry for O=C1c2ccccc2C(=O)N1CC1=CCS(=O)(=O)C1 under Potency: inconclusive: 18.4 µM [rising, partial curve, poor fit]
Entry for O=C1NC[C@H](CCCCN2CCN(CCC3CCCCC3)C(=O)C2=O)N(CC2CCCCC2)C1=O under Potency: inconclusive: 18.4 µM [rising, single point]
